Source: patent publication US9408921B2, “Antineoplastic hydrogels, and enzyme-instructed preparations thereof” (Brandeis University, priority 2009, dated 2016)
Not every detail of the peptide structures is certain; ends, links or a residue may be inferred. Where a SMILES comes first, the peptide text is derived from it. [ ]: non-standard residue; d: D form. The star is where a group is joined. Paclitaxel(2'-O-succinyl) = CC(=O)O[C@H]1C(=O)[C@@]2(C)[C@H]([C@H](OC(=O)c3ccccc3)[C@]3(O)C[C@H](OC(=O)[C@H](OC(=O)CCC(=O)*)[C@@H](NC(=O)c4ccccc4)c4ccccc4)C(C)=C1C3(C)C)[C@]1(OC(C)=O)CO[C@@H]1C[C@@H]2O; Acetyl(2-naphthyl) = O=C(Cc1ccc2ccccc2c1)*; pY = N[C@@H](Cc1ccc(OP(=O)(O)O)cc1)C(=O)O

Assay: distribution coefficient (octanol/water)
Assay type: physicochemical

## CC(=O)O[C@H]1C(=O)[C@@]2(C)[C@H]([C@H](OC(=O)c3ccccc3)[C@]3(O)C[C@H](OC(=O)[C@H](OC(=O)CCC(=O)NCCCC[C@H](NC(=O)[C@H](Cc4ccccc4)NC(=O)[C@H](Cc4ccccc4)NC(=O)Cc4ccc5ccccc5c4)C(=O)N[C@@H](Cc4ccc(OP(=O)(O)O)cc4)C(=O)O)[C@@H](NC(=O)c4ccccc4)c4ccccc4)C(C)=C1C3(C)C)[C@]1(OC(C)=O)CO[C@@H]1C[C@@H]2O [Compound 5a] ({Acetyl(2-naphthyl)}-FFK(Paclitaxel(2'-O-succinyl))[pY]-OH)
  distribution coefficient (octanol/water): 0.61
